Test results taken from patent publication US8278100B2, “Lasonolide compounds as reagents for inducing premature chromosome condensation and methods for treating disorders” (The United States of America, as Represented by the …, priority 2008, dated 2012).

How the values were obtained:
[1] = tested on: Burkitt's Lymphoma CA46 cells; assay: PCC induction and PI staining; format: cell-based, human; details: co-treatment with Lasonolide A, CA 46 cells
Method: (§1) Burkitt's Lymphoma CA46 cells (500,000) (FIG. 1B) or breast cancer MDA-MB-231 cells (500,000) (FIG. 1A) were treated by 100 nM Lasonolide A (stock solution 100 μM in DMSO) for 1 h. Lymphocytes were treated with 200 nM Lasonolide A for 1 h. Cells were harvested with centrifuging on 2,000 rpm for 5 min at 4° C. Pellets were washed once by PBS and re-suspended in 1 mL PBS. 200 μL cells mixture were added to the chamber for cytospining. Cells were cytospun on 800 rpm for 10 min; slides were fixed in fresh-made 4% paraformaldehyde fixation for 20 min at room temperature, then moved to 70% ethanol for 20 min. Slides were stained with Propidium Iodide (“PI”) (20 μg/mL) and RNase A (100 μg/mL) for 15 min. Slides were washed with PBS for three times and mounted with Vectashield anti-fade mounting media (Vector Laboratories, Inc., Burlingame, Calif.). Images were taken using a Nikon Eclipse TE-300 confocal microscope.

[2] = tested on: tumor cells; assay: Premature chromosome condensation (PCC) induction, cells not specified; format: cell-based; details: co-treatment with Lasonolide A
Method: as §1

O=C(CCCCCCC(=O)Nc1ccccc1)NO [SAHA, suberoylanilide hydroxamic acid, reference compound]
effect of the added inhibitor on PCC induction by Lasonolide A [1]: inhibited partially the PCC induction
effect of the added inhibitor on PCC induction by Lasonolide A [2]: could inhibit the Lasonolide A-induced PCC partly
